This note sets out measurements from PMC8466577.

Sequences of proteins named here, by UniProt entry; tags and fusion partners are left off.
UniProt Q8NI27: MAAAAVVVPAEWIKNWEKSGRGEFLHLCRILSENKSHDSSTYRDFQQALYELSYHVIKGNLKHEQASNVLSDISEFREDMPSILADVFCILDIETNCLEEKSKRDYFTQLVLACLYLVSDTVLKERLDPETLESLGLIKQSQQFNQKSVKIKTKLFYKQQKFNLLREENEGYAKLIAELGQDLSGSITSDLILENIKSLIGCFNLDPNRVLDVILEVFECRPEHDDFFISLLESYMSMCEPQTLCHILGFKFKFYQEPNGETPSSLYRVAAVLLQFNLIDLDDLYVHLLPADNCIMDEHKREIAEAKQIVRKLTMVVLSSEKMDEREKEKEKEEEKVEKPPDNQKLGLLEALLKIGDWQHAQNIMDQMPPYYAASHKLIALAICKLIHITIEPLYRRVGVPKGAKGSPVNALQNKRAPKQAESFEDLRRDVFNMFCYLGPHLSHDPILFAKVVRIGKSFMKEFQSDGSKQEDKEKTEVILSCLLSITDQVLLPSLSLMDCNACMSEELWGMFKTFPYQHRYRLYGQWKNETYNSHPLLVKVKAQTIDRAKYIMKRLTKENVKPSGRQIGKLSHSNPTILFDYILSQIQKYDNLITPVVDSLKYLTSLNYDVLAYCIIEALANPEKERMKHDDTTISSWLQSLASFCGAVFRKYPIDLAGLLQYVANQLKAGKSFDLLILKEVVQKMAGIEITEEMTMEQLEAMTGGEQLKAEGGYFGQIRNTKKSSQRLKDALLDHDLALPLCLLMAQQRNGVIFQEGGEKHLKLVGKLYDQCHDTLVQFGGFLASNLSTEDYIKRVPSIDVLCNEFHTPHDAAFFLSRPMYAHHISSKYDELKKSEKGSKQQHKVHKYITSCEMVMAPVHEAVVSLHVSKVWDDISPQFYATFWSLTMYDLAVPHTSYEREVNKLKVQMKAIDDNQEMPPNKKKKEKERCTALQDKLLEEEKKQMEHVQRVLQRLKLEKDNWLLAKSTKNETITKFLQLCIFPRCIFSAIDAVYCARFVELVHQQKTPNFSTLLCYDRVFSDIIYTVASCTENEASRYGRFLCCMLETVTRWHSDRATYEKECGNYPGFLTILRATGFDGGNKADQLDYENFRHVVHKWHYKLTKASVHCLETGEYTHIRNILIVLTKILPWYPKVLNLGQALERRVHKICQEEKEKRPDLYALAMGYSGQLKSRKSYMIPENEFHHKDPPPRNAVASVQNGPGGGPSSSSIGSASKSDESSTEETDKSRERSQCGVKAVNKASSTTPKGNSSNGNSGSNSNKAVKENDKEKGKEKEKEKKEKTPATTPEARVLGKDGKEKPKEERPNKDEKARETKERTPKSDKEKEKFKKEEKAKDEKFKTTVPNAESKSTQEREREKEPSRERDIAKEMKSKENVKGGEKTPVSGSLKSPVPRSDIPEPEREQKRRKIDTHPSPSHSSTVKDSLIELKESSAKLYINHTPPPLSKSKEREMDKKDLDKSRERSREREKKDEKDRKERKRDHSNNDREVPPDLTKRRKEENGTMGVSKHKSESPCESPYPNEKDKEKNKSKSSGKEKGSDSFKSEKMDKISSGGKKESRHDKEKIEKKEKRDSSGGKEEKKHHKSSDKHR

For the experiment, the target named is THOC2 (human (endogenous in SKOV-3 and PC-3)) (UniProt Q8NI27). Description: co-IP; small-scale IPs from PC-3 lysates (1 mg protein) with antibodies to THOC5, THOC2 or RAB11 on Protein G-Dynal beads, normal rabbit IgG as control; Western blot for THOC5, THOC2, SEPT2, SEPT7, RAB11, HMGB1.

Results are given in words; binding and its absence hold for the method and conditions named. Binding seen in cells or lysates may run through a third protein. Some results given as binding are weak or reduced against the parent protein; the word gives no strength.

B1: SEPT2 (protein, UniProt Q15019 1-361)
chain: MSKQQPTQFINPETPGYVGFANLPNQVHRKSVKKGFEFTLMVVGESGLGKSTLINSLFLTDLYPERVIPGAAEKIERTVQIEASTVEIEERGVKLRLTVVDTPGYGDAINCRDCFKTIISYIDEQFERYLHDESGLNRRHIIDNRVHCCFYFISPFGHGLKPLDVAFMKAIHNKVNIVPVIAKADTLTLKERERLKKRILDEIEEHNIKIYHLPDAESDEDEDFKEQTRLLKASIPFSVVGSNQLIEAKGKKVRGRLYPWGVVEVENPEHNDFLKLRTMLITHMQDLQEVTQDLHYENFRSERLKRGGRKVENEDMNKDQILLEKEAELRRMQEMIARMQAQMQMQMQGGDGDGGALGHHV
On to B1, for which the binding entry was “binds”.

B2: SEPT7 (protein, UniProt Q16181 1-437)
chain: MSVSARSAAAEERSVNSSTMVAQQKNLEGYVGFANLPNQVYRKSVKRGFEFTLMVVGESGLGKSTLINSLFLTDLYSPEYPGPSHRIKKTVQVEQSKVLIKEGGVQLLLTIVDTPGFGDAVDNSNCWQPVIDYIDSKFEDYLNAESRVNRRQMPDNRVQCCLYFIAPSGHGLKPLDIEFMKRLHEKVNIIPLIAKADTLTPEECQQFKKQIMKEIQEHKIKIYEFPETDDEEENKLVKKIKDRLPLAVVGSNTIIEVNGKRVRGRQYPWGVAEVENGEHCDFTILRNMLIRTHMQDLKDVTNNVHYENYRSRKLAAVTYNGVDNNKNKGQLTKSPLAQMEEERREHVAKMKKMEMEMEQVFEMKVKEKVQKLKDSEAELQRRHEQMKKNLEAQHKELEEKRRQFEDEKANWEAQQRILEQQNSSRTLEKNKKKGKIF
With B2, the binding result is reported as “binds”.
